# Laboratory results published in the supplement of paper PMC11732987, “Enantioselective OTUD7B fragment discovery through chemoproteomics screening and high-throughput optimisation” (Communications Chemistry, 2025).
# The chains behind the UniProt entries cited, without tags or fusion partners. Where a name states a change or a piece, a line headed by the entry shows the natural chain unless it says otherwise. Residues count along the entry.
# UniProt Q9H4L4, 232-259: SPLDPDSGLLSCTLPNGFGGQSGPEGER
# UniProt O75182: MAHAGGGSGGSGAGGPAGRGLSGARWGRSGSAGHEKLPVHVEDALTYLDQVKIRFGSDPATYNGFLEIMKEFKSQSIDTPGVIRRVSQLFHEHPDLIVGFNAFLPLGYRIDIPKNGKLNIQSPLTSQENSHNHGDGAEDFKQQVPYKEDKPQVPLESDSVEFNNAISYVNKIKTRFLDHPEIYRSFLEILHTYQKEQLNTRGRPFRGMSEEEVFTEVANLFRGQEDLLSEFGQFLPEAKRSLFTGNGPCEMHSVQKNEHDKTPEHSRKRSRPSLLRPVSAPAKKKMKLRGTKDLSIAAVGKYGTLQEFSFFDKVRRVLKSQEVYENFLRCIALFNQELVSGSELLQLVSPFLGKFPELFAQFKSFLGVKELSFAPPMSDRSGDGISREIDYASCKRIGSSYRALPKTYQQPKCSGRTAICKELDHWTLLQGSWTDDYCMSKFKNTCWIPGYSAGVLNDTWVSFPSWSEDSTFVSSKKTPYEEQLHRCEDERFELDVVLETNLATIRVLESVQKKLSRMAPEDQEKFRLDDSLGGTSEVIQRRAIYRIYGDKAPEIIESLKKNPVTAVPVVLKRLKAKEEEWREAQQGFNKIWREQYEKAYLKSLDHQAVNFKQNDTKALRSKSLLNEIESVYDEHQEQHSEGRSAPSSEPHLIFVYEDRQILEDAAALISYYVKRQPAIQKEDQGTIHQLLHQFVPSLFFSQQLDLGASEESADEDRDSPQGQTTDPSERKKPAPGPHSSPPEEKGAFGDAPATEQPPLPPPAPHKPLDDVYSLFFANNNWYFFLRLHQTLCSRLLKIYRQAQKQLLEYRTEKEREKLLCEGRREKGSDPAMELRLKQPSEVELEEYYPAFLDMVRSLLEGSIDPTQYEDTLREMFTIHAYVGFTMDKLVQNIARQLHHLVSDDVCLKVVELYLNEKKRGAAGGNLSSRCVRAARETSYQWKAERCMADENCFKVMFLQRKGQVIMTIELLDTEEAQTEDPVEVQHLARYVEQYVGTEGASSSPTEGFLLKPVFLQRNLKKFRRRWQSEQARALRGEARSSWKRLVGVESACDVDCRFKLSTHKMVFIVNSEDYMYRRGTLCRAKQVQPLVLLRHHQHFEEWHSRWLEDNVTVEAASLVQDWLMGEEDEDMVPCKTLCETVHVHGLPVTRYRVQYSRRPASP
# UniProt Q96I15: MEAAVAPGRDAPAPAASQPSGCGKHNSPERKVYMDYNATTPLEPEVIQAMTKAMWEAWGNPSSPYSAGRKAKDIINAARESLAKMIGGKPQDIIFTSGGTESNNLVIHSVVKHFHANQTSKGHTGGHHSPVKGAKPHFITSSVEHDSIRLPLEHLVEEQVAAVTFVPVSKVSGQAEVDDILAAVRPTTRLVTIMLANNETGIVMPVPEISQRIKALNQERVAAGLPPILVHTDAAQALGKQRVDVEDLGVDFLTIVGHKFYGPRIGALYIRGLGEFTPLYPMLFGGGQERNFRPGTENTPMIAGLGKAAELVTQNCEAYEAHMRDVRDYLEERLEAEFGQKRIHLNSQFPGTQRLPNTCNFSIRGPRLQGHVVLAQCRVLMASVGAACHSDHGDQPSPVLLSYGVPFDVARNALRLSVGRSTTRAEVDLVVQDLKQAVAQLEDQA
# UniProt O95248: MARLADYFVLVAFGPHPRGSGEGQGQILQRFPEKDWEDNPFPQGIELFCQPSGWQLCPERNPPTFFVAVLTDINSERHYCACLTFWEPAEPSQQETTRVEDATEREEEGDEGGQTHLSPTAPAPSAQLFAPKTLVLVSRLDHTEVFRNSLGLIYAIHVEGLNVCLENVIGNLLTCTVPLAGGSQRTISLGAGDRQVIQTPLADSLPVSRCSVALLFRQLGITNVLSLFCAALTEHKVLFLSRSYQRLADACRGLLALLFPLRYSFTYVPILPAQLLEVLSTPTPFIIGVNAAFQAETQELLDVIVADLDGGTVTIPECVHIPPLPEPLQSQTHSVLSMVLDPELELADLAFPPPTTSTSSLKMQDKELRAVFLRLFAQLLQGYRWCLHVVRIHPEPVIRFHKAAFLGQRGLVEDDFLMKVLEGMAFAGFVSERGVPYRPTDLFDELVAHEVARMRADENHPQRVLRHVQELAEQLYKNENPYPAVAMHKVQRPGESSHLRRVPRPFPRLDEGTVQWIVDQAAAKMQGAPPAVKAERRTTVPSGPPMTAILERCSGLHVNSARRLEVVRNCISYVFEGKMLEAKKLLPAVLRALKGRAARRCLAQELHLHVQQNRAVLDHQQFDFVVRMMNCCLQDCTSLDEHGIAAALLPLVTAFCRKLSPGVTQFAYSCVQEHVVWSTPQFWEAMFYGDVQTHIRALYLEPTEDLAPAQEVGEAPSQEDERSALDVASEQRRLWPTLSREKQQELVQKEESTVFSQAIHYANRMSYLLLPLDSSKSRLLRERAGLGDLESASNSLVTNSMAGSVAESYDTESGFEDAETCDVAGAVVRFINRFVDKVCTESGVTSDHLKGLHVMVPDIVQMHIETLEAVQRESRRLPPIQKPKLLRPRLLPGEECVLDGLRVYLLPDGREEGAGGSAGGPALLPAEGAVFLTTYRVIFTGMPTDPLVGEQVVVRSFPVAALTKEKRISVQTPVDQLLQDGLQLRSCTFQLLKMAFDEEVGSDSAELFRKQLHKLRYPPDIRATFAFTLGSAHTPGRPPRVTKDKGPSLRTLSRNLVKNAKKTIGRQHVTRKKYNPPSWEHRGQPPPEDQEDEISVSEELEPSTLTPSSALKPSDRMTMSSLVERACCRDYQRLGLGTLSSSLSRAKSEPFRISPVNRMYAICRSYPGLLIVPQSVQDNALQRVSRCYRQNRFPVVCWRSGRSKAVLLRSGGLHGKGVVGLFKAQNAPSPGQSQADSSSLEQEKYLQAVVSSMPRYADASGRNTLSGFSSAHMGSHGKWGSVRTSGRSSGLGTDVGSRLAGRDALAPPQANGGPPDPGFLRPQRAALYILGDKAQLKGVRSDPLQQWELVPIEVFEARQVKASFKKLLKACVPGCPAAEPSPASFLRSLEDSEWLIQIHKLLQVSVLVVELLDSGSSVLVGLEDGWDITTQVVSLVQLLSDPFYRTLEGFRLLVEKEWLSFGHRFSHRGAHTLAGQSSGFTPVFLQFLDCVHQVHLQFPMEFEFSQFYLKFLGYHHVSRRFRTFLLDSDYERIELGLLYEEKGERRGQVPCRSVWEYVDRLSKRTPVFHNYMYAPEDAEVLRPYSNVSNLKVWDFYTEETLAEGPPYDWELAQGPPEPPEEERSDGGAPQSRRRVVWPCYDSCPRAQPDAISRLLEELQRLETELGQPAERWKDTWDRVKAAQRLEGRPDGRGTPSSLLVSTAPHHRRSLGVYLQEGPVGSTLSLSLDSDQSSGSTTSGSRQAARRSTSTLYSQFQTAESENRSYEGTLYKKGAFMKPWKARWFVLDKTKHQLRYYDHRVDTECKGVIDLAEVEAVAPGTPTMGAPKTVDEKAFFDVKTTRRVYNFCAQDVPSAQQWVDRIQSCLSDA
# UniProt Q6SZW1: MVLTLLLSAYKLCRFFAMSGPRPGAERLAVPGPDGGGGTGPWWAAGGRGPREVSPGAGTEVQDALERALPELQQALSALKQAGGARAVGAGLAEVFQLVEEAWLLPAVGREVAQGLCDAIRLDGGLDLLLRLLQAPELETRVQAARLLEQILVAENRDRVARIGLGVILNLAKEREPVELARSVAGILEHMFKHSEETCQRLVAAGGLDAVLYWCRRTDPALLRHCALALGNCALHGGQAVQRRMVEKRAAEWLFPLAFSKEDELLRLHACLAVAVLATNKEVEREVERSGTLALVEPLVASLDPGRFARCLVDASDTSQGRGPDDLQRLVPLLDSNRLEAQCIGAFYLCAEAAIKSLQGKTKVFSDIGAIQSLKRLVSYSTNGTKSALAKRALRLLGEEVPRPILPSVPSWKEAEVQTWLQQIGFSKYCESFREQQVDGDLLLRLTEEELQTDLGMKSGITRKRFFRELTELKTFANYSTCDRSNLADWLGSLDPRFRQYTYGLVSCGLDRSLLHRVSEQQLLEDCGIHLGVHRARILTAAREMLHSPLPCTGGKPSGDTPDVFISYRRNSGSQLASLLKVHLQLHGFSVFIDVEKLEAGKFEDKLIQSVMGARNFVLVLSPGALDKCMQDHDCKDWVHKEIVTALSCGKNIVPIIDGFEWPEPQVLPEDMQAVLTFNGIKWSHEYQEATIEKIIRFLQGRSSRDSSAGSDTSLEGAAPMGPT
# UniProt Q96HI0: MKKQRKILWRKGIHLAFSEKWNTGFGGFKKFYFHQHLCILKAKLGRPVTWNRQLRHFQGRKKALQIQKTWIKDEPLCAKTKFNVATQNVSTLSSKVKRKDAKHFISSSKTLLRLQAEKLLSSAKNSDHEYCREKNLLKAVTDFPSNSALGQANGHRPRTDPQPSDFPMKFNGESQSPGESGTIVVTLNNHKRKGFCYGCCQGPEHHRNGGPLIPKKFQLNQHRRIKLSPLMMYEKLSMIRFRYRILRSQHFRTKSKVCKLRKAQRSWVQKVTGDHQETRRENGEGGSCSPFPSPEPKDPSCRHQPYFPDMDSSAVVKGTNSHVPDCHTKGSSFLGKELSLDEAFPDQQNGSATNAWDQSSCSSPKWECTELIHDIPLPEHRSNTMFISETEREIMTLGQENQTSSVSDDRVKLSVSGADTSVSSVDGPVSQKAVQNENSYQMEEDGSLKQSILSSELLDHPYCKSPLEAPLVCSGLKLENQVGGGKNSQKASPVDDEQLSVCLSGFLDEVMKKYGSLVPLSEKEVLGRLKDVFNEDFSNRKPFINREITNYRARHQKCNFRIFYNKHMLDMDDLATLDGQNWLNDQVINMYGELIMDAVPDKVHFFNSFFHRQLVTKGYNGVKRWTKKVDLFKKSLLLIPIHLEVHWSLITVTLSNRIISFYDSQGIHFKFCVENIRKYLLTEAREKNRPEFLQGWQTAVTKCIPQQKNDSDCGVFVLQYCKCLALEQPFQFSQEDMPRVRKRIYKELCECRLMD
# UniProt Q8TBK2: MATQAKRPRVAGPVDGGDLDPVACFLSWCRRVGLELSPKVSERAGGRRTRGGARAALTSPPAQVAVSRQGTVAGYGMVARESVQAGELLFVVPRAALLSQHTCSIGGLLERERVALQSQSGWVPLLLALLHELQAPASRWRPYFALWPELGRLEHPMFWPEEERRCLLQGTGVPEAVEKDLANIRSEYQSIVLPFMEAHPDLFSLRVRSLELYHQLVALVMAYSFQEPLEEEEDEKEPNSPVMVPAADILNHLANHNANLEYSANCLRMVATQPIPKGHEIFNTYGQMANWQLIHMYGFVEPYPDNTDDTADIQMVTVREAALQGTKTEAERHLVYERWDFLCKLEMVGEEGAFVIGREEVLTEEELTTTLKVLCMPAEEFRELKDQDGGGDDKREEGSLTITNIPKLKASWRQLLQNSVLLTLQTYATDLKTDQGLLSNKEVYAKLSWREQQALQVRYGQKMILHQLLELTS
# UniProt Q9H0K1: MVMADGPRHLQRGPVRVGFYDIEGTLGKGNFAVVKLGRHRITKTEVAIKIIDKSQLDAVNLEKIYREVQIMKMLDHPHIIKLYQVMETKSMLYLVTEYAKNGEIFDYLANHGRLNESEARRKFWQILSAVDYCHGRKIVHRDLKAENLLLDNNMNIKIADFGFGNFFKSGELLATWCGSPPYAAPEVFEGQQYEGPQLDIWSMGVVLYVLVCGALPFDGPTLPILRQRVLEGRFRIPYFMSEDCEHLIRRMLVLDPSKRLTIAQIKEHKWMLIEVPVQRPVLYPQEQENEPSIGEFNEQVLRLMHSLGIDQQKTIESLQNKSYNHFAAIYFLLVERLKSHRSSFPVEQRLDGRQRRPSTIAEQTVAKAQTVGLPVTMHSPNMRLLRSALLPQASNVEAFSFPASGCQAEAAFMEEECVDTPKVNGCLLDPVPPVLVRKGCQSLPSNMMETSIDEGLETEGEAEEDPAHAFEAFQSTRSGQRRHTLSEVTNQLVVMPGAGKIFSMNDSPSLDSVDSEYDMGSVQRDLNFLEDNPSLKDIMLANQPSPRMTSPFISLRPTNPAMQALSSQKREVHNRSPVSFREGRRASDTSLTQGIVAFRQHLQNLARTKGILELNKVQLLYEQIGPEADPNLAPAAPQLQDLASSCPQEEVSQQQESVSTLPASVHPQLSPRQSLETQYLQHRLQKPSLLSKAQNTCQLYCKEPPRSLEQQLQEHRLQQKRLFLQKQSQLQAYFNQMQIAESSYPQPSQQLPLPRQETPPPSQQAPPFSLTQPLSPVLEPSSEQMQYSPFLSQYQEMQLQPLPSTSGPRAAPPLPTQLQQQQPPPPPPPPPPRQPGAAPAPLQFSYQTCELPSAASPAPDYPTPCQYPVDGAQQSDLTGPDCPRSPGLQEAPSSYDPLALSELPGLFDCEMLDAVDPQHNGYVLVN
# The list shows a part of the results. The data scatter; read single values as rough.
# Compound: ClCC(=O)N[C@H]1CCCc2ccccc12
# Assay: log2 mean competition ratio of IA-DTB cysteine labelling (DMSO/compound) (log2 ratio); higher = stronger cysteine engagement by compound
# Conditions: 50 µM; treatment time: 4 h; cell line lysate: HEK293T
# Description: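 IA-DTB competitive cysteine chemoproteomics in HEK293T RIPA lysate. Lysates were treated with compound 29 or 30 at 50 or 200 µM for 4 h, then IA-DTB (500 µM, 1 h), trypsin-digested, NeutrAvidin-enriched and analysed by diaPASEF. Competition ratio = intensity DMSO / intensity compound (n=4 treated, n=64 DMSO); binding: mean log2 CR ≥ 1 and p ≤ 0.05 plus QC filters. Target is the cysteine site.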
row,Target,log2 mean competition ratio
1,SENP3 C243 (UniProt Q9H4L4),-0.284
2,SIN3B C249 (UniProt O75182),0.174
3,SCLY C316 (UniProt Q96I15),0.116
4,SBF1 C570 (UniProt O95248),-0.383
5,SANBR C478,0.254
6,SARM1 C117 (UniProt Q6SZW1),0.00325
7,SELENOO C241 (UniProt Q9BVL4),-0.285
8,SENP5 C77 (UniProt Q96HI0),-0.469
9,SIPA1L3 C1775,0.138
10,SHC1 C416 (UniProt P29353),-0.302
11,SETX C2006 (UniProt Q7Z333),0.0297
12,SETD6 C166 (UniProt Q8TBK2),-0.0585
13,SIPA1L3 C438,-0.165
14,SH3BP1 C388 (UniProt Q9Y3L3),-0.518
15,SCD5 C14 (UniProt Q86SK9),-0.473
16,SART1 C674 (UniProt O43290),-0.0165
17,SIK3 C655,-0.18
18,SIK2 C426 (UniProt Q9H0K1),-0.205
19,SEMA4D C783 (UniProt Q92854),-0.342
20,SERINC1 C72 (UniProt Q9NRX5),-0.121

# Same assay, conditions: 200 µM; treatment time: 4 h; cell line lysate: HEK293T
row,Target,log2 mean competition ratio
1,SENP3 C243 (UniProt Q9H4L4),-0.0234
2,SIN3B C249 (UniProt O75182),-0.0592
3,SCLY C316 (UniProt Q96I15),-0.157
4,SBF1 C570 (UniProt O95248),-0.233
5,SANBR C478,0.253
6,SARM1 C117 (UniProt Q6SZW1),-0.177
7,SELENOO C241 (UniProt Q9BVL4),-0.604
8,SENP5 C77 (UniProt Q96HI0),0.414
9,SIPA1L3 C1775,0.215
10,SHC1 C416 (UniProt P29353),0.00835
11,SETX C2006 (UniProt Q7Z333),0.206
12,SETD6 C166 (UniProt Q8TBK2),-0.0485
13,SIPA1L3 C438,0.0414
14,SH3BP1 C388 (UniProt Q9Y3L3),-0.153
15,SCD5 C14 (UniProt Q86SK9),0.0285
16,SART1 C674 (UniProt O43290),-0.0858
17,SIK3 C655,0.253
18,SIK2 C426 (UniProt Q9H0K1),-0.093
19,SEMA4D C783 (UniProt Q92854),-0.224
20,SERINC1 C72 (UniProt Q9NRX5),-0.188
